# Measured values published in PubChem BioAssay (EPA / NIEHS).
# Amino acid sequences for entries named in this document (tags omitted). A change or cut given only in a name is not applied to a line headed by its entry.
# UniProt P22680: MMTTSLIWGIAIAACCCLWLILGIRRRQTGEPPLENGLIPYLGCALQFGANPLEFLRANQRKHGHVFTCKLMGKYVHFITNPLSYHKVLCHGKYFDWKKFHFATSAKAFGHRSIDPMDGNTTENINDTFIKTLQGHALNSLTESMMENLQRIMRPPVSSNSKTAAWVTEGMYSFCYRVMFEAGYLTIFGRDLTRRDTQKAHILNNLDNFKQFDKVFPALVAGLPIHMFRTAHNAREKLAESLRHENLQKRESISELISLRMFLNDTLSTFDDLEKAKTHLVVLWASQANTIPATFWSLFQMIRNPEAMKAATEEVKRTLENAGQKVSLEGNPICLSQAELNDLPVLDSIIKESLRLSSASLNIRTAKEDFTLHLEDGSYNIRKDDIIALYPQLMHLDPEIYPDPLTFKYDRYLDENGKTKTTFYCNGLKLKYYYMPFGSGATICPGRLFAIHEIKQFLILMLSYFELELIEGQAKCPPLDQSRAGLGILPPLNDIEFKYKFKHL
# For some of these results: Shown are results outside the selection of hits, which stands elsewhere. Inconclusive results are not listed. The list shows a part of the results, in another mix than the full data. Activity calls are given as the source filed them. How the source made its calls, unless noted: active means hit-call score of the fitted dose curve at least 0.9, where 1 is the maximum; inactive means score below 0.9.
# Columns and labels:
# [1] = read-out: Pyruvate Dehydrogenase Kinase 4 (PDK4), PDK4 (gene 5166); assay: LTEA_HepaRG_PDK4: Life Technologies and Expression Analysis (LTEA) Assay for Pyruvate Dehydrogenase Kinase 4 (PDK4) using HepaRG (AID 2283525); settings: actives raise or lower the signal; mRNA level, 48 h
# Procedure, shortened: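 HepaRG (human liver line), 48 h chemical exposure, 8-pt half-log CRC top 100 uM, 0.5% DMSO vehicle, duplicates. Readout: TaqMan qRT-PCR of PDK4 mRNA, housekeeping-normalized; gain/loss fit relative to DMSO baseline.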
# [2] = STM_H9_OrnCyssISnorm_ratio: Stemina devTOX quickPredict H9 human embryonic stem cell (hESC)-based Assay for Ornithine (ORN):Cystine (CYSS) Ratio (AID 2283714; active means hit-call score of the fitted dose curve at least 0.9, where 1 is the maximum)
# Procedure, shortened: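 UPLC-HRMS of spent media: ORN/CYSS ratio of internal-standard-normalized percentages, DMSO (0.1%) baseline. Pluripotent H9 hESCs, 72h exposure, daily re-dosing with fresh media; last 24h media collected.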
# [3] = read-out: Cytochrome P450 7A1 (Homo sapiens) (UniProt P22680); assay: LTEA_HepaRG_CYP7A1: Life Technologies and Expression Analysis (LTEA) Assay for Cytochrome P450 7A1 (CYP7A1) using HepaRG (AID 2283496); settings: actives raise or lower the signal; mRNA level, 48 h
# Procedure, shortened: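 Using 0.5% DMSO as vehicle and baseline, chemicals were tested in duplicate over an 8-point range from 100 uM on HepaRG cells for 48 h; qRT-PCR signals were normalised to ACTB, GAPDH and POLR2A.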
# [4] = read-out: Glutamate-cysteine ligase catalytic (GCLC), GCLC (gene 2729); assay: LTEA_HepaRG_GCLC: Life Technologies and Expression Analysis (LTEA) Assay for Glutamate-cysteine ligase catalytic (GCLC) using HepaRG (AID 2283498); settings: actives raise or lower the signal; mRNA level, 48 h
# Procedure, shortened: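 HepaRG, 48 h exposure, 8-pt half-log series from 100 uM, 0.5% DMSO vehicle; TaqMan qRT-PCR for GCLC mRNA, housekeeping-normalized; bidirectional curve fit vs DMSO baseline.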
# CYP3A5 (gene 1577) = assay: LTEA_HepaRG_CYP3A5: Life Technologies and Expression Analysis (LTEA) Assay for CYP3A5 using HepaRG (AID 2283493); settings: actives raise or lower the signal; mRNA level, 48 h
# Procedure, shortened: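 qRT-PCR read-out: CYP3A5 transcript in HepaRG lysates, housekeeping-normalized (ACTB/GAPDH/POLR2A), fitted bidirectionally against 0.5% DMSO baseline. Exposure 48 h, eight half-log concentrations up to 100 uM, duplicates.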
# [5] = Tanguay_ZF_120hpf_CFIN_legacy: (Legacy) Oregon State University Tanguay Lab 120 Hour Post-fertilization zebrafish Assay for Caudal Fin Malformation (AID 2283649; active means hit-call score of the fitted dose curve at least 0.9, where 1 is the maximum)
# Procedure, shortened: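 Single dechorionated 5D wild-type embryos are dosed at 6 hpf (final DMSO 0.64%) and held statically at 28C. Caudal fin malformation is recorded as present or absent at 120 hpf under brightfield, excluding dead embryos.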
# [6] = read-out: succinate dehydrogenase complex iron sulfur subunit B (SDHB), SDHB (gene 6390); assay: LTEA_HepaRG_SDHB: Life Technologies and Expression Analysis (LTEA) Assay for succinate dehydrogenase complex iron sulfur subunit B (SDHB) using HepaRG (AID 2283528); settings: actives raise or lower the signal; mRNA level, 48 h
# Procedure, shortened: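 HepaRG cells (~100,000/well, plated 48 h) exposed in duplicate for 48 h in serum-free induction medium to 8-point half-log series from 100 uM in 0.5% DMSO; mRNA by qRT-PCR normalised to ACTB, GAPDH, POLR2A; bidirectional fit versus DMSO.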
# [7] = read-out: Pro-epidermal growth factor (Homo sapiens) (UniProt P01133); assay: LTEA_HepaRG_EGF: Life Technologies and Expression Analysis (LTEA) Assay for Epidermal growth factor (EGF) using HepaRG (AID 2283489); settings: actives raise or lower the signal; mRNA level, 48 h
# Procedure, shortened: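 Concentration-response mRNA assay: HepaRG cells dosed 48 h (max 100 uM, 0.5% DMSO), EGF measured by qRT-PCR and normalized to ACTB/GAPDH/POLR2A.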
# [8] = CCTE_Mundy_HCI_Cortical_NOG_NeuriteLength: CCTE's Neurite Outgrowth Assay in rat cortical cells for Neurite Length, Mundy Lab (AID 2284213)
# Procedure, shortened: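 First, rat primary cortical cells were plated and, 2 h later, given test chemical as a 1/10 dilution. Finally, βIII-tubulin immunostaining enabled automated imaging of neurite length.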
# HGF (gene 3082) = assay: LTEA_HepaRG_HGF: Life Technologies and Expression Analysis (LTEA) Assay for Hepatocyte Growth Facto (HGF) using HepaRG (AID 2283505); settings: actives raise or lower the signal; mRNA level, 48 h
# Procedure, shortened: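 Using HepaRG monolayers kept in 0.5% DMSO, chemicals were tested in duplicate over eight half-log concentrations from 100 uM for 48 h. Endpoint: HGF mRNA change relative to DMSO, normalized to ACTB/GAPDH/POLR2A.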
# [9] = read-out: JUN Transcription Factor, JUN (gene 3725); assay: LTEA_HepaRG_JUN: Life Technologies and Expression Analysis (LTEA) Assay for JUN Transcription Factor using HepaRG (AID 2283513); settings: actives raise or lower the signal; mRNA level, 48 h
# Procedure, shortened: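 HepaRG, 48 h exposure, 8-pt half-log series top 100 uM, 0.5% DMSO, duplicate. JUN mRNA by qRT-PCR (Fluidigm), housekeeping-normalized (ACTB/GAPDH/POLR2A); bidirectional curve fit vs DMSO baseline.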
# [10] = TOX21_p53_BLA_p2_viability: Viability Assessment in the Tox21 HCT-116 p53 Agonism Beta-lactamase Assay, Phase 2 (AID 2283591; active means hit-call score of the fitted dose curve at least 0.9, where 1 is the maximum;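 further: compound exposure lasted 16 h at 37 °C; actives lower the ATP signal meaning cytotoxicity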)
# Procedure, shortened: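 HCT116 p53-bla cells, 4000/well, dosed after 5 h plating (217-fold dilution of DMSO stocks) and incubated 16 h at 37C. Viability taken as cellular ATP by CellTiter-Glo luminescence after 30 min RT; signal loss marks cytotoxicity.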
# CYP2C8 (gene 1558) = assay: LTEA_HepaRG_CYP2C8: Life Technologies and Expression Analysis (LTEA) Assay for CYP2C8 using HepaRG (AID 2283483); settings: actives raise or lower the signal; mRNA level, 48 h
# Procedure, shortened: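 HepaRG (human liver line), 48 h chemical exposure, 8-pt half-log series from 100 uM, 0.5% DMSO vehicle. Readout: CYP2C8 transcript by qRT-PCR, housekeeping-normalized. Bidirectional fit vs DMSO baseline.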
# [11] = read-out: Insulin Like Growth Factor 1 (IGF1), IGF1 (gene 3479); assay: LTEA_HepaRG_IGF1: Life Technologies and Expression Analysis (LTEA) Assay for Insulin Like Growth Factor 1 (IGF1) using HepaRG (AID 2283506); settings: actives raise or lower the signal; mRNA level, 48 h
# Procedure, shortened: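 qRT-PCR readout of IGF1 mRNA, normalized to three housekeeping genes, after 48 h chemical exposure of HepaRG cells. Concentrations: 8-point half-log series, top 100 uM, 0.5% DMSO vehicle. Gain or loss fitted against DMSO baseline.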
# [12] = read-out: Insulin-like growth factor-binding protein 1 (IGFBP1), IGFBP1 (gene 3484); assay: LTEA_HepaRG_IGFBP1: Life Technologies and Expression Analysis (LTEA) Assay for Insulin-like growth factor-binding protein 1 (IGFBP1) using HepaRG (AID 2283508); settings: actives raise or lower the signal; mRNA level, 48 h
# Procedure, shortened: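 HepaRG, 48 h, 8 conc. (max 100 uM, half-log), duplicates, 0.5% DMSO. Readout: TaqMan qRT-PCR, ACTB/GAPDH/POLR2A normalisation. Fit: bidirectional vs DMSO.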
smiles,measurement,setting,value
Cc1cccc(Nc2cc(Cl)nc(SCC(=O)O)n2)c1C,AC50,[1],active: 18.4 µM
same,AC50,[2],active: 54.3 µM
CCCCCCCCCCCCO,outcome,[3],inactive
O=C(Nc1ccc(Cl)cc1)Nc1ccc(Cl)c(Cl)c1,AC50,[4],active: 13.1 µM
CN(C)c1ccc(N=NS(=O)(=O)O)cc1,AC50,CYP3A5 (gene 1577),active: 2.32 µM
same,outcome,[5],inactive
COC(=O)CCCCC(=O)OC,outcome,[6],inactive
O=C1OC(=O)C2C3C=CC(C3)C12 (stereo unspecified),outcome,CYP3A5 (gene 1577),inactive
O=C1CCC(N2C(=O)c3ccccc3C2=O)C(=O)N1 (stereo unspecified),outcome,[7],inactive
same,outcome,[8],inactive
Nc1nc(Cl)nc2c1ncn2[C@H]1C[C@H](O)[C@@H](CO)O1,AC50,HGF (gene 3082),active: 9.92 µM
same,AC50,[9],active: 9.92 µM
same,outcome,[10],inactive
O=C1CCCCC1,outcome,CYP2C8 (gene 1558),inactive
CS(=O)(=O)OCCCCOS(C)(=O)=O,outcome,[11],inactive
COC(=O)c1ccccc1C(=O)O,outcome,[12],inactive
